Patent US12491217B2, “Compositions and methods for promoting healthy neural development in an unborn baby” (The Regents of the University of California, priority 2019, dated 2025)

Assay: Metabolomics of fetal brain at E14.5
Assay type: in vivo, C57Bl/6J mice
Conditions: metabolite level in E14.5 fetal brain; for fold of change ABX/SPF: ANOVA contrast ABX/SPF; for fold of change GF/ABX: ANOVA contrast GF/ABX; for fold of change GF/SPF: ANOVA contrast GF/SPF; for fold of change GF/Sp: ANOVA contrast GF/Sp; for fold of change Sp/ABX: ANOVA contrast Sp/ABX; for fold of change Sp/SPF: ANOVA contrast Sp/SPF

| Compound | fold of change ABX/SPF | fold of change GF/ABX | fold of change GF/SPF | fold of change GF/Sp | fold of change Sp/ABX | fold of change Sp/SPF |
| --- | --- | --- | --- | --- | --- | --- |
| CSCC[C@H](NC=O)C(=O)O [compound 334] | 0.86 | 0.98 | 0.85 | 1.03 | 0.95 | 0.82 |
| C[S+]([O-])CC[C@H](N)C(=O)O (stereo partly drawn) [compound 337] | 0.47 | 1.57 | 0.73 | 0.95 | 1.65 | 0.77 |
| C[S+](CC[C@H](N)C(=O)O)C[C@H]1O[C@@H](n2cnc3c(N)ncnc32)[C@H](O)[C@@H]1O (stereo partly drawn) [compound 342] | 0.79 | 0.97 | 0.77 | 0.89 | 1.09 | 0.87 |
| Nc1ncnc2c1ncn2C1OC(CSCCC(N)C(=O)O)C(O)C1O (stereo not drawn) [compound 343] | 0.91 | 0.89 | 0.81 | 0.98 | 0.90 | 0.82 |
| N[C@@H](CCSC[C@H](N)C(=O)O)C(=O)O [compound 349] | 0.53 | 1.31 | 0.70 | 1.00 | 1.31 | 0.70 |
| N[C@@H](CS)C(=O)O [compound 351] | 1.04 | 0.63 | 0.66 | 0.96 | 0.66 | 0.68 |
| CSC[C@H](N)C(=O)O [compound 353] | 1.21 | 0.86 | 1.04 | 1.56 | 0.55 | 0.67 |
| N[C@@H](CS(=O)O)C(=O)O [compound 362] | 0.86 | 1.14 | 0.98 | 1.23 | 0.92 | 0.80 |
| NCCS(=O)O [compound 363] | 0.96 | 1.02 | 0.98 | 1.22 | 0.84 | 0.80 |
| NCCS(=O)(=O)O [compound 364] | 0.80 | 0.97 | 0.77 | 0.92 | 1.05 | 0.84 |
| CC(=O)NCCS(=O)(=O)O [compound 365] | 0.74 | 1.27 | 0.94 | 1.01 | 1.25 | 0.92 |
| N=C(N)NCCS(=O)(=O)O [compound 367] | 0.71 | 0.75 | 0.54 | 0.84 | 0.89 | 0.64 |
| N[C@@H](CS(=O)(=O)O)C(=O)O [compound 369] | 0.37 | 1.08 | 0.40 | 0.43 | 2.49 | 0.92 |
| N=C(N)NCCC[C@H](N)C(=O)O [compound 371] | 0.88 | 1.06 | 0.93 | 1.06 | 1.00 | 0.88 |
| N=C(NCCC[C@H](N)C(=O)O)N[C@@H](CC(=O)O)C(=O)O [compound 372] | 0.82 | 1.05 | 0.86 | 1.12 | 0.93 | 0.76 |
| NCCC[C@H](N)C(=O)O [compound 375] | 0.77 | 1.19 | 0.92 | 1.11 | 1.08 | 0.84 |
| N=C(N)NCCCC(=O)C(=O)O [compound 379] | 0.80 | 0.97 | 0.78 | 0.95 | 1.02 | 0.82 |
| NC(=O)NCCC[C@H](N)C(=O)O [compound 380] | 0.78 | 0.92 | 0.71 | 0.88 | 1.05 | 0.82 |
| N=C(N)NCCCC[C@H](N)C(=O)O [compound 381] | 0.86 | 0.90 | 0.77 | 0.85 | 1.06 | 0.90 |

| Compound | fold of change ABX/SPF | fold of change GF/ABX | fold of change GF/SPF | fold of change GF/Sp | fold of change Sp/ABX | fold of change Sp/SPF |
| --- | --- | --- | --- | --- | --- | --- |
| NC(=O)NCCCC[C@H](N)C(=O)O [compound 382] | 0.84 | 0.62 | 0.52 | 0.55 | 1.13 | 0.95 |
| O=C(O)[C@@H]1CCCN1 [compound 383] | 0.87 | 1.06 | 0.93 | 1.13 | 0.94 | 0.82 |
| CC(=O)N[C@@H](CCCNC(=N)N)C(=O)O [compound 387] | 0.86 | 0.93 | 0.80 | 0.96 | 0.98 | 0.84 |
| CC(=O)NCCC[C@H](N)C(=O)O [compound 392] | 0.75 | 0.54 | 0.40 | 0.40 | 1.35 | 1.01 |
| O=C(O)[C@@H]1C[C@@H](O)CN1 [compound 397] | 0.93 | 0.97 | 0.91 | 1.06 | 0.92 | 0.86 |
| O=C(O)C1CC(O)CN1C(=O)C1CCCN1 (stereo not drawn) [compound 399] (H-Pro-[Hyp]-OH; configuration not given here) | 0.67 | 1.03 | 0.69 | 0.85 | 1.22 | 0.81 |
| N=C(N)NCCCC(O)C(=O)O (stereo not drawn) [compound 405] | 0.70 | 0.93 | 0.65 | 0.96 | 0.97 | 0.68 |
| N=C(N)NCC(=O)O [compound 410] | 0.88 | 1.13 | 1.00 | 1.09 | 1.03 | 0.91 |
| CN(CC(=O)O)C(=N)N [compound 411] | 0.82 | 1.01 | 0.83 | 0.94 | 1.07 | 0.88 |
| CN1CC(=O)N=C1N [compound 412] | 0.83 | 1.12 | 0.93 | 1.06 | 1.06 | 0.88 |
| NCCCCN [compound 418] | 0.99 | 0.94 | 0.93 | 1.01 | 0.93 | 0.91 |
| NCCCCNCCCN [compound 421] | 0.77 | 0.94 | 0.73 | 1.02 | 0.93 | 0.71 |
| NCCCNCCCCNCCCN [compound 426] | 0.74 | 0.95 | 0.70 | 1.03 | 0.92 | 0.68 |
| CSC[C@H]1O[C@@H](n2cnc3c(N)ncnc32)[C@H](O)[C@@H]1O [compound 429] | 0.79 | 1.06 | 0.84 | 0.92 | 1.16 | 0.92 |
| CC(=O)NCCCCN [compound 430] | 0.94 | 1.17 | 1.10 | 0.95 | 1.23 | 1.16 |
| CNC(=N)N [compound 438] | 0.72 | 1.00 | 0.72 | 1.00 | 1.00 | 0.72 |
| N=C(N)NCCCC(=O)O [compound 439] | 0.83 | 0.98 | 0.82 | 1.13 | 0.87 | 0.72 |
| N[C@@H](CCC(=O)N[C@@H](CSSC[C@H](N)C(=O)O)C(=O)NCC(=O)O)C(=O)O [compound 445] | 0.21 | 4.83 | 1.00 | 0.92 | 5.28 | 1.10 |

Where a SMILES comes first, the peptide text is derived from it. [ ]: non-standard residue; d: D form. Hyp = O=C(O)[CH]1C[CH](O)CN1
